For at least one compound, name, drawing or mass did not settle the structure.
Assay: Exposure to air humidity / moisture uptake
Format: physicochemical
Settings: compared with naturally occurring iohexol (endo and exo isomers)
Procedure: Crystallized iohexol samples were also examined by SME analysis for the influence of air humidity (i.e., humidity of ambient/room air). Crystallized iohexol samples were exposed to air humidity for 120 hours.

CC(=O)N(CC(O)CO)c1c(I)c(C(=O)NCC(O)CO)c(I)c(C(=O)NCC(O)CO)c1I (stereo not drawn) [exo iohexol, iohexol]
Tendency to absorb moisture: lower tendency to absorb moisture
